In the supplement of paper PMC6078165:
The reference is the same well before dosing, and untreated signal decays as well.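 Fibroblast labels name human fibroblasts: mostly primary ones from tissues such as uterus (C12385, HUF), lung (H6013), bone (Hs27A), adrenal (HADF) and skin (WS1), plus mammary HMF and breast cancer-associated Hs343T. The cancer cells are basal-like or mesenchymal-like triple-negative breast cancer lines. The paper calls a changed response a hit when it shifts by more than 3x the replicate standard deviation. The tissue of the other fibroblasts is not given here.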

Tested on: MDAMB468
Test: relative JC-1 red fluorescence (viability) vs pre-drug, coculture with fibroblast (fraction); higher = more viable cancer cells
Experimental: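 JC-1 labelled TNBC cells cocultured 1:1 (1,500 cells each) with CellTrace Violet stained primary or stromal fibroblasts in 384-well plates in FluoroBrite medium, treated with one of 42 anticancer drugs at 0.1, 1, 10 or 100 uM. JC-1 red fluorescence (mitochondrial integrity in cancer cells only) was read by plate reader every 8 h for 72 h. Values are normalised to each well's pre-drug value. The stock of one drug was tenfold lower, so its dose labels may be too high.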

O=NN(CCCl)C(=O)NC1CCCCC1 [Lomustine]
relative JC-1 red fluorescence
Conditions	8 h	16 h	24 h	32 h	40 h	48 h	56 h	64 h	72 h
0.1 µM, coculture fibroblast: C12385	0.84	0.789	0.749	0.688	0.653	0.648	0.621	0.609	0.603
0.1 µM, coculture fibroblast: H6013	0.865	0.852	0.8	0.773	0.749	0.761	0.739	0.732	0.683
0.1 µM, coculture fibroblast: H6019	0.854	0.843	0.831	0.794	0.756	0.755	0.698	0.679	0.66
0.1 µM, coculture fibroblast: H6076	0.918	0.957	0.903	0.881	0.82	0.81	0.776	0.756	0.783
0.1 µM, coculture fibroblast: H6231	0.794	0.9262	0.848	0.818	0.769	0.735	0.685	0.662	0.652
0.1 µM, coculture fibroblast: HADF	0.8721	0.856	0.785	0.77	0.724	0.724	0.682	0.677	0.642
0.1 µM, coculture fibroblast: HCFa	0.873	0.8534	0.8	0.7634	0.7072	0.704	0.657	0.624	0.578
0.1 µM, coculture fibroblast: HCPF	0.844	0.861	0.92	0.888	0.839	0.813	0.7525	0.73694	0.71
0.1 µM, coculture fibroblast: HHSteC	0.891	0.876	0.838	0.799	0.774	0.779	0.73	0.714	0.668
0.1 µM, coculture fibroblast: HMF	0.8209	0.958	0.91	0.881	0.833	0.819	0.768	0.755	0.741
0.1 µM, coculture fibroblast: HPFa	0.942	0.896	0.8691	0.8168	0.8027	0.797	0.729	0.703	0.617
0.1 µM, coculture fibroblast: HUF	0.863	0.7773	0.724	0.6533	0.611	0.596	0.559	0.543	0.528
0.1 µM, coculture fibroblast: Hs5	0.9922	0.967	0.923	0.89	0.813	0.771	0.729	0.693	0.703
0.1 µM, coculture fibroblast: Hs27A	0.852	0.862	0.776	0.763	0.715	0.71	0.67	0.653	0.62
0.1 µM, coculture fibroblast: Hs343T	0.865	0.913	0.89	0.87	0.8	0.787	0.75	0.739	0.73
0.1 µM, coculture fibroblast: WS1	0.851	0.7803	0.725	0.659	0.605	0.579	0.552	0.531	0.527
1 µM, coculture fibroblast: C12385	0.8914	0.824	0.754	0.691	0.649	0.629	0.593	0.565	0.562
1 µM, coculture fibroblast: H6013	0.878	0.814	0.788	0.78879	0.764	0.774	0.75	0.735	0.694
1 µM, coculture fibroblast: H6019	0.836	0.782	0.729	0.673	0.642	0.616	0.566	0.5302	0.5078
1 µM, coculture fibroblast: H6076	0.9207	0.9065	0.846	0.863	0.8021	0.789	0.758	0.735	0.779
1 µM, coculture fibroblast: H6231	0.818	0.921	0.8	0.789	0.722	0.696	0.634	0.615	0.608
1 µM, coculture fibroblast: HADF	0.8758	0.785	0.7526	0.7283	0.662	0.649	0.603	0.582	0.547
1 µM, coculture fibroblast: HCFa	0.851	0.798	0.74	0.706	0.627	0.61	0.559	0.523	0.482
1 µM, coculture fibroblast: HCPF	0.8774	0.9206	0.8134	0.831	0.741	0.72	0.673	0.657	0.652
1 µM, coculture fibroblast: HHSteC	0.8995	0.846	0.8231	0.7981	0.7518	0.756	0.6818	0.6573	0.61213
1 µM, coculture fibroblast: HMF	0.856	0.948	0.852	0.828	0.757	0.731	0.6768	0.651	0.629
1 µM, coculture fibroblast: HPFa	0.918	0.894	0.854	0.788	0.7428	0.7334	0.6752	0.6433	0.558
1 µM, coculture fibroblast: HUF	0.9231	0.82564	0.776	0.707	0.6627	0.6366	0.5969	0.5815	0.565
1 µM, coculture fibroblast: Hs5	0.884	0.894	0.919	0.8854	0.808	0.758	0.709	0.661	0.667
1 µM, coculture fibroblast: Hs27A	0.8431	0.767	0.731	0.728	0.657	0.65	0.608	0.581	0.54
1 µM, coculture fibroblast: Hs343T	0.884	0.908	0.8398	0.8291	0.759	0.742	0.6897	0.6768	0.6696
1 µM, coculture fibroblast: WS1	0.89	0.797	0.7664	0.694	0.648	0.614	0.58036	0.5611	0.554
10 µM, coculture fibroblast: C12385	0.843	0.815	0.781	0.736	0.691	0.685	0.648	0.612	0.593
10 µM, coculture fibroblast: H6013	0.851	0.87	0.8394	0.844	0.841	0.861	0.841	0.842	0.789
10 µM, coculture fibroblast: H6019	0.852	0.806	0.761	0.714	0.677	0.67	0.627	0.607	0.59
10 µM, coculture fibroblast: H6076	0.899	0.92	0.891	0.896	0.823	0.822	0.803	0.802	0.849
10 µM, coculture fibroblast: H6231	0.7949	0.8921	0.822	0.827	0.763	0.738	0.683	0.657	0.651
10 µM, coculture fibroblast: HADF	0.863	0.86	0.809	0.801	0.765	0.757	0.717	0.71	0.661
10 µM, coculture fibroblast: HCFa	0.882	0.872	0.821	0.779	0.728	0.719	0.6727	0.6471	0.60636
10 µM, coculture fibroblast: HCPF	0.838	0.927	0.865	0.88	0.804	0.7861	0.733	0.712	0.709
10 µM, coculture fibroblast: HHSteC	0.889	0.873	0.846	0.818	0.798	0.797	0.743	0.735	0.68935
10 µM, coculture fibroblast: HMF	0.8266	0.943	0.8879	0.873	0.808	0.791	0.729	0.718	0.689
10 µM, coculture fibroblast: HPFa	0.92	0.914	0.878	0.8238	0.796	0.7926	0.73	0.703	0.618
10 µM, coculture fibroblast: HUF	0.879	0.858	0.8335	0.771	0.744	0.732	0.697	0.689	0.682
10 µM, coculture fibroblast: Hs5	0.967	0.934	0.91	0.9064	0.844	0.823	0.805	0.7824	0.81
10 µM, coculture fibroblast: Hs27A	0.851	0.855	0.794	0.778	0.722	0.724	0.68	0.651	0.61
10 µM, coculture fibroblast: Hs343T	0.868	0.936	0.904	0.8994	0.8176	0.802	0.766	0.75	0.739
10 µM, coculture fibroblast: WS1	0.8483	0.8184	0.774	0.7272	0.692	0.672	0.643	0.6226	0.618
100 µM, coculture fibroblast: C12385	0.837	0.7883	0.746	0.701	0.6704	0.66749	0.621	0.592	0.572
100 µM, coculture fibroblast: H6013	0.843	0.733	0.668	0.646	0.656	0.669	0.646	0.645	0.588
100 µM, coculture fibroblast: H6019	0.816	0.728	0.68	0.632	0.613	0.615	0.587	0.571	0.56
100 µM, coculture fibroblast: H6076	0.878	0.727	0.6451	0.654	0.605	0.614	0.606	0.595	0.653
100 µM, coculture fibroblast: H6231	0.842	0.837	0.766	0.774	0.7212	0.707	0.658	0.634	0.624
100 µM, coculture fibroblast: HADF	0.8951	0.8037	0.718	0.701	0.674	0.659	0.601	0.591	0.521
100 µM, coculture fibroblast: HCFa	0.8492	0.7645	0.702	0.687	0.661	0.668	0.623	0.592	0.544
100 µM, coculture fibroblast: HCPF	0.8693	0.8451	0.7648	0.7804	0.70962	0.691	0.649	0.623	0.606
100 µM, coculture fibroblast: HHSteC	0.906	0.834	0.8013	0.7772	0.7541	0.7477	0.6908	0.6723	0.6265
100 µM, coculture fibroblast: HMF	0.855	0.825	0.69	0.66	0.599	0.589	0.541	0.516	0.51
100 µM, coculture fibroblast: HPFa	0.937	0.8225	0.787	0.742	0.739	0.732	0.6825	0.662	0.589
100 µM, coculture fibroblast: HUF	0.894	0.746	0.681	0.622	0.586	0.57	0.525	0.509	0.494
100 µM, coculture fibroblast: Hs5	0.987	0.82	0.782	0.768	0.705	0.687	0.661	0.64	0.653
100 µM, coculture fibroblast: Hs27A	0.863	0.8039	0.7349	0.752	0.711	0.708	0.679	0.662	0.614
100 µM, coculture fibroblast: Hs343T	0.885	0.81	0.696	0.672	0.606	0.596	0.569	0.541	0.526
100 µM, coculture fibroblast: WS1	0.86	0.756	0.7	0.662	0.63	0.614	0.5862	0.557	0.5405
